Test: Pre-dose endogenous plasma concentrations of CHP and THP in healthy volunteers (Study 0202-71), HPLC
Type: in vivo, human
Conditions: healthy subjects; for Mean endogenous concentration in plasma, pre-dose: across all dose groups, 24 readings
Protocol: Example 8—Study Title: Determination of Pre-Dose Endogenous Concentrations of CHP in Healthy Volunteers (Study 0202 71) (FIG. 11)
According to the examples in this invention, the following ICH-GCP Clinical Phase I study has been performed in healthy subjects for the assessment of the pharmacokinetic profiles of CHP and THP and the determination of the pre-dose endogenous CHP blood plasma concentrations, which were measured for all healthy volunteers directly before CHP administration using a validated, sensitive and selective HPLC bioanalytical method.
Example 9—Study Title: Determination of Pre-Dose Endogenous Concentrations of THP in Healthy Volunteers (Study 0202 71)—(FIG. 11)
According to the examples in this invention, the following ICH-GCP Clinical Phase I study has been performed in healthy volunteers for the assessment of the pharmacokinetic profiles of THP and to determine the pre-dose endogenous THP plasma concentrations, which were measured for all healthy volunteers directly before CHP administration using a validated, sensitive and selective HPLC bioanalytical method. This was performed before both CHP administrations (i.e. for 2.0 g and 3.0 g). • The mean endogenous THP concentration in healthy subjects, calculated across all dose groups, was 0.97±1.15 μg CHP/ml of plasma.

| SMILES | Mean endogenous concentration in plasma, pre-dose | Endogenous CHP concentration in blood (approximately 2-fold the plasma concentration) (pre-dose) [μg CHP/ml blood] | Endogenous CHP concentration in blood, molar equivalent (pre-dose) [μM CHP/ml blood] | Pre-dose endogenous concentration as a percentage of the average Cmax | Endogenous THP concentration in blood (approximately 2-fold the plasma concentration) (pre-dose) [μg THP/ml blood] | Endogenous THP concentration in blood, molar equivalent (pre-dose) [μM THP/ml blood] |
| --- | --- | --- | --- | --- | --- | --- |
| O=C(O)[C@@H]1C[C@H](O)CN1 [CHP, cis-4-hydroxy-L-proline] | 0.71±0.56 μg CHP/ml of plasma | 1.420±1.12 | 10.834±8.54 | – | – | – |
| O=C(O)[C@@H]1C[C@@H](O)CN1 [THP, trans-4-hydroxy-L-proline] | 0.97±1.15 μg CHP/ml of plasma | – | – | 8.1%±9.6% | 1.94±2.3 | 14.80±17.5 |

Reference: patent US10328051B2, “Proline or proline derivatives for the treatment of dementia” (priority 2014, dated 2019)
